PMC10457189

The chains behind the UniProt entries cited, without tags or fusion partners.
UniProt Q14974: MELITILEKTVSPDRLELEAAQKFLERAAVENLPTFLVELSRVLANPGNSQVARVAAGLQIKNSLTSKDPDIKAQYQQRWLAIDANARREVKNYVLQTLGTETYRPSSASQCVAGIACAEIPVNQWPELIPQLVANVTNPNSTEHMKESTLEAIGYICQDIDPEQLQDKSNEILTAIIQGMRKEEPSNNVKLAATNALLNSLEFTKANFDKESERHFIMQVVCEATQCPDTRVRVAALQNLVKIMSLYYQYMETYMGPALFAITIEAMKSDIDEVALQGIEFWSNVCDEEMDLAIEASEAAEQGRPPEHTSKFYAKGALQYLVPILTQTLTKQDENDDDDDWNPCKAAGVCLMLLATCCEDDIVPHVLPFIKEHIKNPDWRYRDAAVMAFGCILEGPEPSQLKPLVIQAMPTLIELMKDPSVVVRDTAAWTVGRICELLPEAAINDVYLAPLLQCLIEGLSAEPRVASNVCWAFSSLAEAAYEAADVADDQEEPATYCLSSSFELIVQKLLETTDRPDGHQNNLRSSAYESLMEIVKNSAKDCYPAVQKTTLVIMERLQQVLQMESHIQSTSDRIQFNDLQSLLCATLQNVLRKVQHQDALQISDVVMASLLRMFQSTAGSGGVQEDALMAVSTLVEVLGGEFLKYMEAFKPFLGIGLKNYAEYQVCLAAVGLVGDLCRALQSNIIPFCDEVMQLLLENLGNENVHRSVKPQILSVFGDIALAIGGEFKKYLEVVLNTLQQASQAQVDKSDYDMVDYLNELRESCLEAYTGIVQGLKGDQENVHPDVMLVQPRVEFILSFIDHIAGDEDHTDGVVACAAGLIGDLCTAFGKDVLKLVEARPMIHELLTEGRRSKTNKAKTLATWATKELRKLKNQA

Biological target: T1, Signal-induced proliferation-associated 1 (SIPA1) (human (endogenous in BT549)) (UniProt Q96FS4)
T1 sequence: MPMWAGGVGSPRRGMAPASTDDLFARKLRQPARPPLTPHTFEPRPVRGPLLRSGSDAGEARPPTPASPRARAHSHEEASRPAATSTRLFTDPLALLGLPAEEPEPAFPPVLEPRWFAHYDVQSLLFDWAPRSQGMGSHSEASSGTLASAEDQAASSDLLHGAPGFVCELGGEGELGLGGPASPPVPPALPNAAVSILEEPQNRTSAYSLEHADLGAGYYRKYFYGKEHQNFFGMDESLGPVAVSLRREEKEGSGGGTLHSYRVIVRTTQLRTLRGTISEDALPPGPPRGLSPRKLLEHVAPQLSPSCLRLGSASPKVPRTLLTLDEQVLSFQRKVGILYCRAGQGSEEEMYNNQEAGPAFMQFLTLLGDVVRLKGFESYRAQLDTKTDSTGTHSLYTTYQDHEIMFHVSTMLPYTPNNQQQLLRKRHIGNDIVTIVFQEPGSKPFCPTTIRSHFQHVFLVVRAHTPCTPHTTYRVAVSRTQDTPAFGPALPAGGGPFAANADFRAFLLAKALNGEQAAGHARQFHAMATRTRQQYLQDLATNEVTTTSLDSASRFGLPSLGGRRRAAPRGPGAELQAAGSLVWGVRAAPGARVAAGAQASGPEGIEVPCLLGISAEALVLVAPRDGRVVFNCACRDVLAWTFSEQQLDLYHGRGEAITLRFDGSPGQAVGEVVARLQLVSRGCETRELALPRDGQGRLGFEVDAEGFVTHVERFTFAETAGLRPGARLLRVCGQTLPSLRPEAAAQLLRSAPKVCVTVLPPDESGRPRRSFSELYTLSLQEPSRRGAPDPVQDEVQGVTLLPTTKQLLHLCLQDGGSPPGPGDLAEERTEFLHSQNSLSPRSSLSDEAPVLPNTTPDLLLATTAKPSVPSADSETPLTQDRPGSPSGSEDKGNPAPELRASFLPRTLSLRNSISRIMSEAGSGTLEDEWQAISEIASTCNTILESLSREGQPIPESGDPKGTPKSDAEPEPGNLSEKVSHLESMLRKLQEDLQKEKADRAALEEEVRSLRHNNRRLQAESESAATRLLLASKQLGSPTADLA
Test: affinity purification with mass spectrometry; co-immunoprecipitation of SIPA1 and proteomics; hits listed in Table S1; cells not given

Substance: importin β1 (from UniProt Q14974 1-876)
- binding: binds

No constants are given. Whether binding was seen depends on the method and setting. In cells and extracts the contact can be indirect. Here binding means that the protein was enriched with, or labelled near, the bait; the list need not be complete.
